PubChem BioAssay AID504834 (National Center for Advancing Translational Sciences (NCATS), 2011)
Hit rate of the full screen: of about 320,000 compounds, about 22,000 (6.9%) were called active. Inconclusive means that the source gave no clear call. Such entries were picked first, then a sample of the others. The call rests on the fitted dose curve; in most records, active means well fitted inhibition curve with a large enough effect; inconclusive means small, poorly fitted or top-dose-only effect, or another doubt; inactive means no such curve, though single readings can be large or run the other way. Potencies of inconclusive entries are doubtful fits and often do not repeat.

Assay: Primary qHTS for delayed death inhibitors of the malarial parasite plastid, 96 hour incubation
Conditions: P. falciparum luciferase reporter growth; series mostly up to 28.7 µM; activity change, negative = inhibition: at the top concentration
Summary of the method: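 Parasite growth measured via integrated firefly luciferase reporter in P. falciparum. Infected erythrocytes at 2% hematocrit, 0.05% parasitemia final were treated 96 hours at 37 C under 5% CO2, and luminescence was read.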
On the % scale 0 is the no-effect control and ±100 the full control effect; potency means the concentration at half of the fitted maximal effect.

SMILES	Potency	activity change, negative = inhibition
COc1ccccc1-c1cc(C(=O)N/N=C\c2cn(C)nc2C)c2ccccc2n1	inconclusive: 11.7 µM [inhibitor, single point]	–
CCOc1ccc(C(=O)C2CCN(CC(=O)Nc3nccs3)CC2)cc1	–	inactive: 50.3%
O=C1N=C(N2CCOCC2)S/C1=C1\C(=O)N(Cc2ccccc2)c2ccc(Br)cc21	inconclusive: 18.5 µM [inhibitor, single point]	–
O=C(O)C1CCN(C(=O)CCc2ccccc2)CC1	–	inactive: -6.72%
O=C(NCc1ccccn1)C(=O)C1C(=O)Nc2ccccc21 (stereo unspecified)	–	inactive: 50.3%
COc1cccc(OCc2nc3ncc(Br)cc3[nH]2)c1	inconclusive: 0.294 µM [inhibitor, partial curve, poor fit]	–
O=C(O)c1ccc(Cl)c(S(=O)(=O)N2CCCC2)c1	–	inactive: 4.61%
CC1(C)CC(=O)C2=C(C1)OC(N)=C(C#N)C2CCc1ccccc1 (stereo unspecified)	inconclusive: 18.5 µM [inhibitor, single point]	–
C=CCN1C=C2C(=O)C(C)(OC(=O)C3CCCC3)C(=O)C(c3ccccc3)=C2C=C1CCCC(=O)OC (stereo unspecified)	inconclusive: 18.5 µM [inhibitor, single point]	–
COCCNCCCCOc1ccc(Br)cc1C	inconclusive: 18.5 µM [inhibitor, single point]	–
COC(=O)C1C2C=CC3(CN(C(C)c4ccc(OC)cc4)C(=O)C13)O2 (stereo unspecified)	–	inactive: 73.4%
COc1ccc(CCNC(=O)Nc2ccccc2[N+](=O)[O-])cc1	–	inactive: 2.53%
CC1CCCN(C(=O)c2cc3ccccc3cc2O)C1 (stereo unspecified)	inconclusive: 5.22 µM [inhibitor, partial curve]	–
Cc1ccc(C(=O)N2CCN(c3cc4c(cc3[N+](=O)[O-])n(C)c(=O)n4C)CC2)cc1	inconclusive: 0.185 µM [inhibitor, full curve, poor fit]	–
O=C(CS(=O)(=O)Cc1ccccc1)Nc1cccnc1	inconclusive: 11.7 µM [inhibitor, partial curve, poor fit]	–
CNC(=O)NC(=O)CSc1nc2sccc2c(=O)n1-c1ccccc1	inconclusive: 13.1 µM [inhibitor, partial curve]	–
Cc1noc(C)c1S(=O)(=O)N(CC(=O)N1CCCCCC1)c1ccc(C(C)C)cc1	–	inactive: 41.8%
CC(C)Nc1nc(Cl)nc(NCCOc2ccccc2)n1	–	inactive: 0%
Cc1cs/c(=N\N=C\c2ccccc2)n1Cc1ccco1	inconclusive: 10.4 µM [inhibitor, single point]	–
C/C(=N\N1CCN(c2ccccc2)CC1)c1ccco1	–	inactive: -3.19%
O=C(CN(C(=O)CCC(=O)Nc1nccs1)c1ccccc1F)NCCc1ccccc1	inconclusive: 18.5 µM [inhibitor, single point]	–
CNC(=S)NCCCc1ccccc1	active: 5.22 µM	–
CCOC(=O)C1=C(CN2CCN(C(=O)c3ccco3)CC2)NC(=O)NC1c1ccc(C)cc1 (stereo unspecified)	inconclusive: 0.37 µM [inhibitor, full curve, poor fit]	–
O=C(Cc1ccccc1)NCc1ccc2c(c1)OCO2	active: 10.4 µM	–

SMILES	Potency	activity change, negative = inhibition
Cc1cc(C)c(C(=O)OCC(=O)Nc2cccc(S(=O)(=O)N3CCCCC3)c2)c(C)c1	inconclusive: 13.1 µM [inhibitor, single point]	–
CCOC(=O)N1CCN(C(=O)CN(C2CCCCC2)S(=O)(=O)c2ccc(Cl)cc2)CC1	inconclusive: 11.7 µM [inhibitor, single point]	–
O=C(CSc1nnc(-c2cccnc2)n1Cc1ccccc1)NCc1ccccc1	inconclusive: 11.7 µM [inhibitor, partial curve, poor fit]	–
CC(C)(Oc1ccc(Cl)cc1)C(=O)Nc1c2c(nn1C(C)(C)C)CS(=O)(=O)C2	inconclusive: 16.5 µM [inhibitor, partial curve, poor fit]	–
CCOc1cc(C2NC(=O)CCC2[N+](=O)[O-])cc(Br)c1OCC (stereo unspecified)	–	inactive: 3.09%
O=C(Nc1cc(S(=O)(=O)N2CCCCC2)ccc1Cl)c1ccc(F)cc1	inconclusive: 7.38 µM [inhibitor, partial curve]	–
Cc1ccc(C)c(Cn2c(=O)n(C)c(=O)c3sccc32)c1	inconclusive: 18.5 µM [inhibitor, partial curve, poor fit]	–
COc1ccc(-c2[nH]ncc2CN(C)Cc2ccccn2)c(OC)c1	active: 13.1 µM	–
CC(Cc1ccccc1)NCc1ccccc1Cl (stereo unspecified)	–	inactive: 15.4%
O=C(NNS(=O)(=O)c1ccc(C(=O)NC2CCCC2)cc1)c1ccncc1	–	inactive: -10.1%
O=C(C1=C(O)C(=O)N(CCN2CCOCC2)C1c1cccc(Br)c1)c1cc2ccccc2o1 (stereo unspecified)	–	inactive: -26.3%
COc1ccc(NC(=O)CCCNC(=O)Cn2cnc3sc(C)c(C)c3c2=O)cc1OC	inconclusive: 11.7 µM [inhibitor, partial curve]	–
O[Si](CCCN1CCCCC1)(c1ccc(F)cc1)C1CCCCC1 (stereo unspecified)	active: 0.104 µM	–
COc1ccccc1CCNC(=O)C(=O)NCC1OCCN1S(=O)(=O)c1ccc2c(c1)OCCO2 (stereo unspecified)	inconclusive: 2.62 µM [inhibitor, partial curve, poor fit]	–
CCC1CCCCN1CCCNC(=O)c1ccc2c(=O)n(Cc3ccc(OC)cc3)c(=O)[nH]c2c1 (stereo unspecified)	inconclusive: 18.5 µM [inhibitor, single point]	–
Oc1ccc(-c2sc(Nc3ccccc3)n[n+]2-c2ccc(F)cc2)cc1	–	inactive: 32.1%
CCn1c(SCC(=O)N2CCc3ccccc3C2)nc2c1c(=O)n(C)c(=O)n2C	inconclusive: 11.7 µM [inhibitor, single point]	–
CCOc1ccc(S(=O)(=O)NC2CCCC2)cc1	–	inactive: -20.9%
COCCN(CCOC)c1nc(-c2ccc(C)cc2)nc2ccccc12	inconclusive: 16.5 µM [inhibitor, single point]	–
COCC(C)n1c(C)cc(C(=O)COc2ccc(C)nc2[N+](=O)[O-])c1C (stereo unspecified)	inconclusive: 18.5 µM [inhibitor, partial curve, poor fit]	–
O=C(CN1C(=O)COc2ccccc21)N(Cc1ccccc1)Cc1ccccn1	inconclusive: 13.1 µM [inhibitor, partial curve]	–
O=c1c(C(c2ccccc2)c2c(O)sc3ccccc3c2=O)c(O)sc2ccccc12	–	inactive: -24.8%
CC(=O)N1CCC(C(=O)Nc2ccc(S(=O)(=O)NCCc3ccccc3)cc2)CC1	inconclusive: 18.5 µM [inhibitor, single point]	–
Cc1ccc(NC(=O)C2CC(=O)N(Cc3ccccc3)C2)cc1S(=O)(=O)N1CCCCCC1 (stereo unspecified)	active: 11.7 µM	–

Reprinted from the listing, 20 compounds:
SMILES	Potency	activity change, negative = inhibition
CCOC(=O)N1CCN(C(=O)CN(C2CCCCC2)S(=O)(=O)c2ccc(Cl)cc2)CC1	inconclusive: 11.7 µM [inhibitor, single point]	–
O=C(CSc1nnc(-c2cccnc2)n1Cc1ccccc1)NCc1ccccc1	inconclusive: 11.7 µM [inhibitor, partial curve, poor fit]	–
CC(C)(Oc1ccc(Cl)cc1)C(=O)Nc1c2c(nn1C(C)(C)C)CS(=O)(=O)C2	inconclusive: 16.5 µM [inhibitor, partial curve, poor fit]	–
CCOc1cc(C2NC(=O)CCC2[N+](=O)[O-])cc(Br)c1OCC (stereo unspecified)	–	inactive: 3.09%
O=C(Nc1cc(S(=O)(=O)N2CCCCC2)ccc1Cl)c1ccc(F)cc1	inconclusive: 7.38 µM [inhibitor, partial curve]	–
Cc1ccc(C)c(Cn2c(=O)n(C)c(=O)c3sccc32)c1	inconclusive: 18.5 µM [inhibitor, partial curve, poor fit]	–
COc1ccc(-c2[nH]ncc2CN(C)Cc2ccccn2)c(OC)c1	active: 13.1 µM	–
CC(Cc1ccccc1)NCc1ccccc1Cl (stereo unspecified)	–	inactive: 15.4%
O=C(NNS(=O)(=O)c1ccc(C(=O)NC2CCCC2)cc1)c1ccncc1	–	inactive: -10.1%
O=C(C1=C(O)C(=O)N(CCN2CCOCC2)C1c1cccc(Br)c1)c1cc2ccccc2o1 (stereo unspecified)	–	inactive: -26.3%
COc1ccc(NC(=O)CCCNC(=O)Cn2cnc3sc(C)c(C)c3c2=O)cc1OC	inconclusive: 11.7 µM [inhibitor, partial curve]	–
O[Si](CCCN1CCCCC1)(c1ccc(F)cc1)C1CCCCC1 (stereo unspecified)	active: 0.104 µM	–
COc1ccccc1CCNC(=O)C(=O)NCC1OCCN1S(=O)(=O)c1ccc2c(c1)OCCO2 (stereo unspecified)	inconclusive: 2.62 µM [inhibitor, partial curve, poor fit]	–
CCC1CCCCN1CCCNC(=O)c1ccc2c(=O)n(Cc3ccc(OC)cc3)c(=O)[nH]c2c1 (stereo unspecified)	inconclusive: 18.5 µM [inhibitor, single point]	–
Oc1ccc(-c2sc(Nc3ccccc3)n[n+]2-c2ccc(F)cc2)cc1	–	inactive: 32.1%
CCn1c(SCC(=O)N2CCc3ccccc3C2)nc2c1c(=O)n(C)c(=O)n2C	inconclusive: 11.7 µM [inhibitor, single point]	–
CCOc1ccc(S(=O)(=O)NC2CCCC2)cc1	–	inactive: -20.9%
COCCN(CCOC)c1nc(-c2ccc(C)cc2)nc2ccccc12	inconclusive: 16.5 µM [inhibitor, single point]	–
COCC(C)n1c(C)cc(C(=O)COc2ccc(C)nc2[N+](=O)[O-])c1C (stereo unspecified)	inconclusive: 18.5 µM [inhibitor, partial curve, poor fit]	–
O=C(CN1C(=O)COc2ccccc21)N(Cc1ccccc1)Cc1ccccn1	inconclusive: 13.1 µM [inhibitor, partial curve]	–

(continued)

SMILES	Potency	activity change, negative = inhibition
C/C(=N\NC(=O)c1ccc(Cl)cc1)c1ccccn1	–	inactive: -41.9%
Cc1ccccc1NC(=O)OCc1cccnc1Sc1ccc(Cl)cc1	inconclusive: 0.0928 µM [inhibitor, full curve, poor fit]	–
CCN(c1cccc(C)c1)S(=O)(=O)c1nnc(NC(=O)c2ccco2)s1	inconclusive: 18.5 µM [inhibitor, single point]	–
COc1ccc(CNC(=O)CCSCc2cccc(F)c2)cc1	inconclusive: 18.5 µM [inhibitor, single point]	–
Cc1cc(=O)oc2cc(OCC(=O)NC3CCCCC3)ccc12	–	inactive: 73.1%
CCN(CC)CCn1c(=N)n(CCO)c2ccccc21	inconclusive: 11.7 µM [inhibitor, single point]	–
CCCOc1ccc(-c2nc3c(c(=O)[nH]c(=O)n3Cc3ccccc3)n2CCO)cc1OCC	inconclusive: 11.7 µM [inhibitor, single point]	–
COc1ccc(Cn2c(C(C)C)nc3sc4ccccc4c(=O)c3c2=O)cc1	inconclusive: 13.1 µM [inhibitor, single point]	–
CC(=Nc1ccccc1)C1=C(O)CCCC1=O	active: 11.7 µM	–
Cc1cccc(NC(=O)C2CCN(S(=O)(=O)c3cccc4cccnc34)CC2)c1	active: 5.86 µM	–
Cc1cc(C)c(S(=O)(=O)N2CCc3ccccc32)c(C)c1	–	inactive: 32.8%
CN(C)S(=O)(=O)c1ccc2c(c1)nc(CCC(=O)NCC1CCCCC1)n2C	inconclusive: 18.5 µM [inhibitor, partial curve, poor fit]	–
CC1CN(CCOc2ccccc2C(C)C)CC(C)O1 (stereo unspecified)	inconclusive: 18.5 µM [inhibitor, single point]	–
CCNC(=S)NC1CC2CCCC(C1)N2Cc1ccco1 (stereo unspecified)	inconclusive: 0.104 µM [inhibitor, full curve]	–
Cc1c2c(n3c(nc4ccccc43)c1C#N)N(CCN1CCOCC1)CC2	inconclusive: 1.85 µM [inhibitor, full curve, poor fit]	–
COc1ccc(CCN2C(=O)CC(Cc3ccc(C)cc3)C2=O)cc1OC (stereo unspecified)	inconclusive: 3.7 µM [inhibitor, full curve]	–
CCc1ccc(Cn2nnc(C(=O)Nc3ccc(OC)cc3OC)c2N)cc1	active: 7.38 µM	–
COc1cc(CNc2nc(C)c([N+](=O)[O-])c(C)c2C#N)cc(OC)c1OC	inconclusive: 18.5 µM [inhibitor, single point]	–
O=C1C(Cl)=C(NCCN2CCOCC2)C(=O)c2ccccc21	inconclusive: 4.15 µM [inhibitor, single point]	–
CCOc1ccc(NC(=O)CN(C)C(=O)CCCOc2ccc(Cl)c(C)c2)cc1OCC	inconclusive: 5.22 µM [inhibitor, partial curve, poor fit]	–
CCOC(=O)N/N=C(\CCC(=O)O)c1cccs1	–	inactive: 24.3%
CSc1nc2cc(S(=O)(=O)N3CCCCC3)ccc2s1	–	inactive: -10.1%
C/C=C\C=C/C(=O)Nc1cccc(C2=NOC3(C2)C[C@@H](C(N)=O)N(C(=O)COc2ccc(Cl)cc2)C3)c1 (stereo partly specified)	inconclusive: 0.147 µM [inhibitor, full curve, poor fit]	–
